Results are given in words; binding and its absence hold for the method and conditions named. Binding seen in cells or lysates may run through a third protein. A yes stands for co-enrichment or nearness to the bait. Other partners may have been found. For some of these results: Where a sequence is shown, tags or fusion partners need not be part of it.
Tests used:
[1] = target: T1, Cbc1, tandem affinity tagged (bait) (S. pombe) (UniProt O14253); assay: affinity purification with mass spectrometry; tandem affinity purification of an FTP-tagged bait from S. pombe cell extract (IgG beads, TEV cleavage with Benzonase, anti-Flag beads, Flag peptide elution); 50 mM HEPES pH 7.0, 100 mM NaCl, 1.5 mM MgCl2, 0.15% NP-40; MALDI-TOF of single bands and LC-MS/MS of the whole eluate; wild-type cells, also red1Δ and rmn1Δ backgrounds
T1 sequence: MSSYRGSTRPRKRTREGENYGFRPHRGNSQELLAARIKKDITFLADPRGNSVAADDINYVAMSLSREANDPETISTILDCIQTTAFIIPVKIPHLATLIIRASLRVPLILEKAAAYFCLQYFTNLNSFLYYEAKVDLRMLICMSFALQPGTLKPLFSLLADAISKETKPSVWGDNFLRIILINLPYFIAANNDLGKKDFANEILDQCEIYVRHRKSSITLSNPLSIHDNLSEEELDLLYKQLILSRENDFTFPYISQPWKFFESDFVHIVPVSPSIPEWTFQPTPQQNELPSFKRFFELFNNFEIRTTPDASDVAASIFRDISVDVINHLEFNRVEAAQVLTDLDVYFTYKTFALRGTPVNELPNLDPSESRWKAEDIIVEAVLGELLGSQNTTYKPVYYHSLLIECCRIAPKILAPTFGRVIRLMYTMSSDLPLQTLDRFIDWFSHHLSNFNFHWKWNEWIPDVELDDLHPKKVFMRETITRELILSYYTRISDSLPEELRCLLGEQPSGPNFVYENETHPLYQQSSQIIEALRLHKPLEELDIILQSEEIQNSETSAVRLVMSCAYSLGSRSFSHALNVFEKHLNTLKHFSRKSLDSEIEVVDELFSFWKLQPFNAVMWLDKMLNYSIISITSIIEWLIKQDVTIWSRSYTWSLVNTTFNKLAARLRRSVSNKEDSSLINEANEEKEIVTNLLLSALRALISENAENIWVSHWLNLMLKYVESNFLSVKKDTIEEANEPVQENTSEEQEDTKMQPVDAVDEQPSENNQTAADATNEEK

[2] = target: T2, Ars2, tandem affinity tagged (bait) (S. pombe) (UniProt O94326); assay: as above
T2 sequence: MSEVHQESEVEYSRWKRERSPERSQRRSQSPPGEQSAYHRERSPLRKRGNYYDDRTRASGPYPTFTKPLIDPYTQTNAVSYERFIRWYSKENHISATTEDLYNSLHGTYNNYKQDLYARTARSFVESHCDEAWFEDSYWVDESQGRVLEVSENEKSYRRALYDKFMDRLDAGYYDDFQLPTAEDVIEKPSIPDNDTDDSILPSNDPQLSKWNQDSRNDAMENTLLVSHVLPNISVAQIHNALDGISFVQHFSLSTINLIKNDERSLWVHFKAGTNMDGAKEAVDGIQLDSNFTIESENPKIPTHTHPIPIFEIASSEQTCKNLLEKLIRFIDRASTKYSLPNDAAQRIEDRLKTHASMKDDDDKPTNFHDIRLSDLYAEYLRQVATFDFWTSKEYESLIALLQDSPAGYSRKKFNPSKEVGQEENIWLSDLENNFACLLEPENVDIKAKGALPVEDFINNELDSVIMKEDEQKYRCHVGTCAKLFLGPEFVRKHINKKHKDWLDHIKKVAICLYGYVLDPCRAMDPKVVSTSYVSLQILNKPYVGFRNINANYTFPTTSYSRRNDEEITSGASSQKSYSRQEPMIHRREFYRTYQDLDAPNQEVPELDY

[3] = target: Iss10, split-tag bait (second purification step) (S. pombe); assay: affinity purification with mass spectrometry; split-tag purification: first step by Mtl1, second step by Iss10, Cbc1 or Pab2; from S. pombe cell extract
[4] = target: T3, Pab2, split-tag bait (second purification step) (S. pombe) (UniProt O14327); assay: as above
T3 sequence: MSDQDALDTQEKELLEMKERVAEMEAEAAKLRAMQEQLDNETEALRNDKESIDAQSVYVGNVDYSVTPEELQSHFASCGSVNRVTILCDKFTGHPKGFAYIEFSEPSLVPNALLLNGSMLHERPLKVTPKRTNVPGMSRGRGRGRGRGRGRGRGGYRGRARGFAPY

[5] = target: Mtl1, split-tag bait (first purification step) (S. pombe); assay: as above
[6] = target: T4, Cbc1, split-tag bait (second purification step) (S. pombe) (UniProt O14253); assay: as above
T4 sequence: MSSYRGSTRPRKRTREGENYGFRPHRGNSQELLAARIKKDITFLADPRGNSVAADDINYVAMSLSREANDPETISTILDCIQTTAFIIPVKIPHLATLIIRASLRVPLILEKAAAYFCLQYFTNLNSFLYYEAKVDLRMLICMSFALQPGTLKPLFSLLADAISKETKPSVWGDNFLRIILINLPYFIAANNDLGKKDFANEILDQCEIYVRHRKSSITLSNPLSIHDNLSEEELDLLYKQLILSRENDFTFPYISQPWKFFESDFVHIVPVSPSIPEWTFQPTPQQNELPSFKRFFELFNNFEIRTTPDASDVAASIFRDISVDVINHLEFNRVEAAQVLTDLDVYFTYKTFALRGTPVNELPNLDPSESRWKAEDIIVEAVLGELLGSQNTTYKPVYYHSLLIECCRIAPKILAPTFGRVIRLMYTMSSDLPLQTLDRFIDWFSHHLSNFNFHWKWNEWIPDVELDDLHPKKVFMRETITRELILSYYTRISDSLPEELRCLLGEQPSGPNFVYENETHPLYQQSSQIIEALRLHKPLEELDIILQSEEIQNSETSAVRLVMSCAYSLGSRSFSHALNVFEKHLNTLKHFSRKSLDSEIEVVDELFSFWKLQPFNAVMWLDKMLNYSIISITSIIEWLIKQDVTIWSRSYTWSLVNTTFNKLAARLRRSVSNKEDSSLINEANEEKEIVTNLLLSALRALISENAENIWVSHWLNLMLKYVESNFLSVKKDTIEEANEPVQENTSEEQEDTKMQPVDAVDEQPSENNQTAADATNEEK

[7] = target: Red5–FTP (S. pombe); assay: affinity purification with mass spectrometry; tandem affinity purification of an FTP-tagged bait from S. pombe cell extract (IgG beads, TEV cleavage with Benzonase, anti-Flag beads, Flag peptide elution); 50 mM HEPES pH 7.0, 100 mM NaCl, 1.5 mM MgCl2, 0.15% NP-40; MALDI-TOF of single bands and LC-MS/MS of the whole eluate; wild-type cells, also red1Δ and rmn1Δ backgrounds
[8] = target: T5, Red1–FTP (S. pombe) (UniProt Q9UTR8); assay: as above
T5 sequence: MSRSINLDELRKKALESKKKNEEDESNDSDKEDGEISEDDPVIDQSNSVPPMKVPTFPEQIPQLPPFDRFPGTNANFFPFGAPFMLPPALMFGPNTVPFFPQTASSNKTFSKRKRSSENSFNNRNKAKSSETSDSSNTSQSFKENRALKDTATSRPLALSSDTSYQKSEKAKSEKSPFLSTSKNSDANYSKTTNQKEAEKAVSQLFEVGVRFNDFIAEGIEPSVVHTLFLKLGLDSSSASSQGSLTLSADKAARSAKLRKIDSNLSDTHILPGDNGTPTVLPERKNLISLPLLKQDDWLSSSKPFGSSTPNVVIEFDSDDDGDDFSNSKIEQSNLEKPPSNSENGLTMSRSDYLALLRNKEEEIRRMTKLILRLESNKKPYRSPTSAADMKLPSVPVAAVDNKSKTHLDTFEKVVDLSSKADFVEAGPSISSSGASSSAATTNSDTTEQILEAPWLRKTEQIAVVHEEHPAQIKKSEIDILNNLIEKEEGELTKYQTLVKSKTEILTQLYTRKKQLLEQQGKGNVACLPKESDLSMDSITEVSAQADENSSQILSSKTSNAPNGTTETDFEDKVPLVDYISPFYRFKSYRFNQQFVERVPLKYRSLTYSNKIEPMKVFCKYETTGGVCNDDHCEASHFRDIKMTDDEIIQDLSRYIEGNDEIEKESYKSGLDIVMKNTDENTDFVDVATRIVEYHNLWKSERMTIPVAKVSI

[9] = target: Mtl1–FTP (S. pombe); assay: as above
[10] = target: Ctr1–FTP (S. pombe); assay: as above
[11] = target: Nrl1–FTP (S. pombe); assay: as above

Measured: binding

MTREC complex (S. pombe)
binds: [1] | [2]

B1: Ars2 (protein, UniProt O94326 1-609)
chain: MSEVHQESEVEYSRWKRERSPERSQRRSQSPPGEQSAYHRERSPLRKRGNYYDDRTRASGPYPTFTKPLIDPYTQTNAVSYERFIRWYSKENHISATTEDLYNSLHGTYNNYKQDLYARTARSFVESHCDEAWFEDSYWVDESQGRVLEVSENEKSYRRALYDKFMDRLDAGYYDDFQLPTAEDVIEKPSIPDNDTDDSILPSNDPQLSKWNQDSRNDAMENTLLVSHVLPNISVAQIHNALDGISFVQHFSLSTINLIKNDERSLWVHFKAGTNMDGAKEAVDGIQLDSNFTIESENPKIPTHTHPIPIFEIASSEQTCKNLLEKLIRFIDRASTKYSLPNDAAQRIEDRLKTHASMKDDDDKPTNFHDIRLSDLYAEYLRQVATFDFWTSKEYESLIALLQDSPAGYSRKKFNPSKEVGQEENIWLSDLENNFACLLEPENVDIKAKGALPVEDFINNELDSVIMKEDEQKYRCHVGTCAKLFLGPEFVRKHINKKHKDWLDHIKKVAICLYGYVLDPCRAMDPKVVSTSYVSLQILNKPYVGFRNINANYTFPTTSYSRRNDEEITSGASSQKSYSRQEPMIHRREFYRTYQDLDAPNQEVPELDY
binds: [3] | [4] | [5] | [6] | [1] | [7] | [8] | [9]

B2: Cbc2 (protein, UniProt Q9P383 1-182)
chain: MASITRLDAVSPYLIRRFKNDLRALDAVKQSNCVYVGNLSFYTTEEQIYALFSKCGEIRRIIMGVDRFTKTPCGFCFVEYFENQDALDSLKYISRTSLDERIIRADLDHGYEEGRQYGRGASGGQVRDEMREEFDPGRGGYAKNRQPTSSRQLANYSGISSAPLGSSLELQSNPRYNRWKKN
binds: [3] | [4] | [5] | [6] | [1] | [2] | [7] | [8] | [9]

B3: Mmi1 (protein, UniProt O74958 1-488)
chain: MSNTNFSTSRSSKSIPELPNLEALRSLWPPPSLNESGDTRSVWTTHTGEPVASSVLSTSGSNNFSSPLKRPAPESHDAPIGRRLMVDDPRLIKHGKYDFSRHCTDYGHSYEWPYFRSLRRESMLYHTSGSYPESQPPYSSYSTDAPHYYHAGSESSAYYDSRSRLHGIQPPPKRRTLSPPPRRLADPVVVGSSRYVEEEVYRRPPYTLASEVPSSASAYQAGYSSYPVRSSPQLSHEDTRHGIASSGSTRYPFVPANTRASHSPSLLEPYAHSLPSSVAPVGAYPEKSSYLLSNSSNDSASRKEKPKARASTPPPLNFSRASEHRNEKGERISMINPRVVLDENGISHRSRYFIMLCDNETAIAHAKKTSIWAVKKDSSKRISDAYKKASVYFIFVAQQTYNALGYAQVVSDLNSTELPFWSDSSHAGGVRIKWIKTCNLFSAEISEIVSHMDHGSEARDGMEMMYDEGSRLCTLINYAIMKRIGRDR
binds: [3] | [4] | [5] | [6] | [10] | [7] | [11] | [8] | [9]

Source: PMC4455066
